From patent publication US6696267B2, “Methods and compositions for screening Icrac modulators” (Warner-Lambert Company, priority 2000, dated 2004)

Test system: NFAT-β-lactamase Jurkat cells
Test: CCF2-AM loading capacity of NFAT-β-lactamase Jurkat cells (F.U. at 535 nm)
Settings: 50 μM, data not shown

Compound: COC(=O)C1=C(C)NC(C)=C(C(=O)OC)C1c1ccccc1[N+](=O)[O-] [Nifedipine]
- Toxic effects (weak loading): Toxic effects were detected
